In patent publication US6686450 one finds binding data, which are given here for one substance.

Amino acid sequences for entries named in this document (tags omitted). A change or cut given only in a name is not applied to a line headed by its entry.
UniProt P04386: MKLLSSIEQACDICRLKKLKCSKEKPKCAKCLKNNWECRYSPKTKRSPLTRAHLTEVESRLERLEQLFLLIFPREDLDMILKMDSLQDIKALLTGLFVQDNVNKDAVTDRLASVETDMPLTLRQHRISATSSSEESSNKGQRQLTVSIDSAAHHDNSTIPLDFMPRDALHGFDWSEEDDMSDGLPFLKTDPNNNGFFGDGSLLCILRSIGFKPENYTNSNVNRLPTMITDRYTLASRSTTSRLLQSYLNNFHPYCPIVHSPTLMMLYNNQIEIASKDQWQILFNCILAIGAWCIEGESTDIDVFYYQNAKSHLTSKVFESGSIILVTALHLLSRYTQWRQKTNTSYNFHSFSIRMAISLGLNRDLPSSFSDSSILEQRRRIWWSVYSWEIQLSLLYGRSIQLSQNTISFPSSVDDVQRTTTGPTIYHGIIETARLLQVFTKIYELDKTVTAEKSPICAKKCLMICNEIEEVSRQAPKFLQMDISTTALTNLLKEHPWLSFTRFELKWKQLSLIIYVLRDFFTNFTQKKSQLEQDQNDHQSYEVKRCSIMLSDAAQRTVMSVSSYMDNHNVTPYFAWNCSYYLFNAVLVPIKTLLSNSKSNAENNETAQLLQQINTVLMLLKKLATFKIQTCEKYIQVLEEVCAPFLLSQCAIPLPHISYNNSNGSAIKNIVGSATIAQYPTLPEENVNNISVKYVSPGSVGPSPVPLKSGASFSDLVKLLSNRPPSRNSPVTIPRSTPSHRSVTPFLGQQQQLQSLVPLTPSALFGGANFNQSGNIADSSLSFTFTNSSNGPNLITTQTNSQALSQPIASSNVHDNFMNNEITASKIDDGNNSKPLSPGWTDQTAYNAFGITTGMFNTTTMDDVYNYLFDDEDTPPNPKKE
UniProt Q9Y6J0: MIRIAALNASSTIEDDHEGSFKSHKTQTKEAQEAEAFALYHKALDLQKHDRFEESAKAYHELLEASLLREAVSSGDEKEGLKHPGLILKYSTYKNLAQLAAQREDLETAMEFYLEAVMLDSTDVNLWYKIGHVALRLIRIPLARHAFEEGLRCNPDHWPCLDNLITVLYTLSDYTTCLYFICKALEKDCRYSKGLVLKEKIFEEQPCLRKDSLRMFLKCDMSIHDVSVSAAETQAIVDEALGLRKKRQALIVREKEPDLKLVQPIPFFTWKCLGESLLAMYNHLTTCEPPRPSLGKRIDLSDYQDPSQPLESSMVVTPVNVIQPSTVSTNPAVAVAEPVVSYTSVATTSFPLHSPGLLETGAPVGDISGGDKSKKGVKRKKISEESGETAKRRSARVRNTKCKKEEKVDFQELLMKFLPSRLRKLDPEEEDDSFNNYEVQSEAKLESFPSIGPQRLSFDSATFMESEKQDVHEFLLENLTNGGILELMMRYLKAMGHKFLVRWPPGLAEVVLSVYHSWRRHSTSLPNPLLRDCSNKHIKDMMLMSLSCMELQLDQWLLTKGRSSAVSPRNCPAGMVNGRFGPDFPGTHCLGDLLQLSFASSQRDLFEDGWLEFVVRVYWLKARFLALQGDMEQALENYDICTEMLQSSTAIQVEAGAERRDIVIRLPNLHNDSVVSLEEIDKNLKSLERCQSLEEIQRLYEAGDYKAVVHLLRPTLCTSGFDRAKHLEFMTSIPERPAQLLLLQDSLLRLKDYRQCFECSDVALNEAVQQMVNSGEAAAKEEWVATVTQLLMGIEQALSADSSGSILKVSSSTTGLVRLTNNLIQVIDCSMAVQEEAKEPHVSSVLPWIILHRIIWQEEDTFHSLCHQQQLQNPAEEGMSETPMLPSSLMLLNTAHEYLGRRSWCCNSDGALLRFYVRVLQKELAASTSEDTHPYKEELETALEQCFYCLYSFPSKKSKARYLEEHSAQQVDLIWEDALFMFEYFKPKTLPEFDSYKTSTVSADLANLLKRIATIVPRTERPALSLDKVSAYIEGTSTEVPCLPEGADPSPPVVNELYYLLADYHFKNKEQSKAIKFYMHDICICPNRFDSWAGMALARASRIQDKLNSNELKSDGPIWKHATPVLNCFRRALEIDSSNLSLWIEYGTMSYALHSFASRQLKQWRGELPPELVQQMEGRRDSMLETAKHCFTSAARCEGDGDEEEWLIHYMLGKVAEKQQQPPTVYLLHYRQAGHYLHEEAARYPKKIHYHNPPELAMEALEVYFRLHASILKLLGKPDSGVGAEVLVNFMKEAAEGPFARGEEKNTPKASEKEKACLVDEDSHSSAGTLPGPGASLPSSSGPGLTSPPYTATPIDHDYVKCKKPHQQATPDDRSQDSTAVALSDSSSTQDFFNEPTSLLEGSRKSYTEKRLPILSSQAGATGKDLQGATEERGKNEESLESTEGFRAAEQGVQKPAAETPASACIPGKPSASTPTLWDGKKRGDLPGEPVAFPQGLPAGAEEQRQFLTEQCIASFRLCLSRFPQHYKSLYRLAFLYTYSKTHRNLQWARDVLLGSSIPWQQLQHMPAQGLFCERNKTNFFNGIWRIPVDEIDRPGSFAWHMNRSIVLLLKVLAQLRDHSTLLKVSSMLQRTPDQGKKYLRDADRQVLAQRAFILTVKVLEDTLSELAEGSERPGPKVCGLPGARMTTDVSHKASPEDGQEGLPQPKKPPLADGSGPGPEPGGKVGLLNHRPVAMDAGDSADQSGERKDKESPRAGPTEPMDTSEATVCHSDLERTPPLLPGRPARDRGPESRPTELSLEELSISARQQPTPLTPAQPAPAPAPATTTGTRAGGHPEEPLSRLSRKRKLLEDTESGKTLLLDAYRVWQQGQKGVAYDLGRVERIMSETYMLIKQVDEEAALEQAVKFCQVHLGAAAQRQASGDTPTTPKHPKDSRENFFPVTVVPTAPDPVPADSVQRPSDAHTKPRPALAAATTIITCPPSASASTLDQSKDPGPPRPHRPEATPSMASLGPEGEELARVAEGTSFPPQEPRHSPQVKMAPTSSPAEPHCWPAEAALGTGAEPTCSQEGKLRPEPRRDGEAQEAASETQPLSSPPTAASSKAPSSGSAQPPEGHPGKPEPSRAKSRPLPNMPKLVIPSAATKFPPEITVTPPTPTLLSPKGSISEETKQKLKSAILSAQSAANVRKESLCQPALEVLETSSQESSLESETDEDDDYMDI

Assay [1] addresses GAL4 DB - full length calcineurin Aβ2 wild type (UniProt P04386). Briefly: mammalian two-hybrid (luciferase) in Jurkat T cells.
Assay [2] has the same target. The assay can be described thus: mammalian two-hybrid in Jurkat T cells.

These are yes or no findings as the source states them, for the method shown. Some binding calls cover weakened binding; strength is not graded here.

For the substance “VP16 AD - Cabin 1-14 (from UniProt Q9Y6J0 2143-2220)”, the binding entry in assay [1] and in assay [2] was “binds” each time.
